In US8236820B2, “Anti-inflammatory compounds and uses thereof” (priority 2007, dated 2012):
The amount applied is not stated for every result.

How the values were obtained:
MCF-7 = assay: Cell viability (MTT) assay, 24-h IC50, MCF-7; assay type: cell-based, human
MIA-PaCa-2 = assay: Cell viability (MTT) assay, 24-h IC50, MIA-PaCa-2; assay type: cell-based, human; details: for Ratio parent NSAID/derivative of 24-h IC50: MIA-PaCa-2
MDA-MB231 = assay: Cell viability (MTT) assay, 24-h IC50, MDA-MB231; assay type: cell-based, human
BxPC-3 = assay: Cell viability (MTT) assay, 24-h IC50, BxPC-3
SW480 = assay: Cell viability (MTT) assay, 24-h IC50, SW480; assay type: cell-based, human
HT29 = assay: Cell viability (MTT) assay, 24-h IC50, HT29; assay type: cell-based, human; details: for Ratio parent NSAID/derivative of 24-h IC50: HT29

Compound | Ratio parent NSAID/derivative of 24-h IC50 (MCF-7) | Ratio parent NSAID/derivative of 24-h IC50 (MIA-PaCa-2) | Ratio parent NSAID/derivative of 24-h IC50 (MDA-MB231) | Ratio parent NSAID/derivative of 24-h IC50 (BxPC-3) | Ratio parent NSAID/derivative of 24-h IC50 (SW480) | Ratio parent NSAID/derivative of 24-h IC50 (HT29) | Fold Enhancement (MCF-7; IC50 VPA vs phospho-VPA) | Fold Enhancement (MIA-PaCa-2; IC50 VPA vs phospho-VPA, MIA PaCa2) | Fold Enhancement (MDA-MB231; IC50 VPA vs phospho-VPA) | Fold Enhancement (BxPC-3; IC50 VPA vs phospho-VPA) | Fold Enhancement (SW480; IC50 VPA vs phospho-VPA) | Fold Enhancement (HT29; IC50 VPA vs phospho-VPA, HT-29)
CCOP1(=O)OCC(COC(=O)c2ccccc2OC(C)=O)O1 (stereo not drawn) [Glycero-phospho-aspirin I] | >63 | >7 | >10 | >32 | >12 | 74 |  |  |  |  |  | 
CCOP(=O)(OCC)OCCCCOC(=O)CC1=C(C)/C(=C/c2ccc(SC)cc2)c2ccc(F)cc21 [Phospho-sulindac II] | 30 | 11 | 30 | 15 | 12 | 17 |  |  |  |  |  | 
CCOP(=O)(OCC)OCC(COC(=O)c1ccccc1OC(C)=O)OP(=O)(OCC)OCC (stereo not drawn) [Glycero-phospho-aspirin II] | >8 | >8 | >6 | >12 | >12 | 100 |  |  |  |  |  | 
CCOP(=O)(OCC)OCCCCOC(=O)CC1=C(C)/C(=C/c2ccc([S+](C)[O-])cc2)c2ccc(F)cc21 (stereo not drawn) [Phospho-sulindac I] | 18 | 12 | 31 | 8 | 9 | 18 |  |  |  |  |  | 
CCCC(CCC)C(=O)Oc1ccc(COP(=O)(OCC)OCC)cc1 [Phosoho-VPA] |  |  |  |  |  |  | 35 | 35 | 136 | 47 | 62 | 245
CCOP(=O)(OCC)OCCCCOC(=O)C(C)c1ccc(-c2ccccc2)c(F)c1 (stereo not drawn) [Phospho-Flurobiprofen] | 22 | 9 | 48 | 24 | 12 | 21 |  |  |  |  |  | 
